Where “and” joins values, the source holds several entries; their conditions need not be identical. Identical values can stand only once. Out of some 300,000 compounds screened, about 5,400 (1.8%) were called active. The inconclusive results got no clear call from the source; some entries with a clear call stand among them for comparison. Calls follow the shape of the full dose curve; tested in HEK293 cells. A potency beside an inconclusive call is a rough fit, not a confirmed value.
Assay: qHTS for inhibitors of binding or entry into cells for Marburg Virus
Settings: Marburg virus pseudotyped entry inhibition, cell reporter; series mostly up to 37.8 µM
Potency is read from the fitted curve at half-maximal effect.

| Structure (SMILES) | Potency |
| --- | --- |
| CCOc1ccc(NC(=O)C(c2ccccn2)N(C(=O)CCl)c2ccc(OCC)cc2)cc1 (stereo not drawn) | inconclusive: 31.6 µM [inhibitor, single point] |
| O=c1cc(-c2ccccc2)n(S(=O)(=O)c2ccc3ccccc3c2)o1 | inconclusive: 0.447 µM [inhibitor, partial curve, poor fit] |
| CC1Cc2cc(S(=O)(=O)N3CCC(C(=O)N4CCCCC4)CC3)ccc2N1C(=O)C1CC1 (stereo not drawn) | inconclusive: 15.8 µM [inhibitor, single point] |
| O=C(COC(=O)c1cccc(Cl)c1Cl)NCCN1C(=O)CSC1=O | inactive |
| Cc1cc(C)n(CC(O)COc2ccccc2C(=O)Nc2ccccc2)n1 (stereo not drawn) | inactive |
| O=C(C1CCCN(S(=O)(=O)c2cccc3nsnc23)C1)N1CCN(c2cccc(Cl)c2)CC1 (stereo not drawn) | inconclusive: 35.5 µM [inhibitor, single point] |
| Cc1cc(C)n2c(SCc3cccs3)nnc2n1 | inactive |
| COc1ccc(CCn2c(-c3ccco3)nc3nc4ccccc4nc32)cc1 | inconclusive: 12.6 µM [inhibitor, partial curve] |
| CCOc1cc(-c2cc(-c3ccc(C)cc3)nc(N)c2C#N)ccc1O | inconclusive: 23.1 µM [inhibitor, single point] |
| COc1cc(CNCCc2c[nH]c3ccccc23)ccc1OCc1ccccc1F | inconclusive: 29.1 µM [inhibitor, single point] |
| CC1(C)CC(NCc2cccc([N+](=O)[O-])c2)CC(C)(C)N1 | inactive |
| Cc1csc(NC(=O)c2cc3c(s2)-c2ccccc2OC3)n1 | inconclusive: 1.16 µM [activator, single point] |
| Cc1cc2cc(C(c3nnnn3Cc3ccco3)N3CCc4ccccc4C3)c(=O)[nH]c2cc1C (stereo not drawn) | inconclusive: 35.5 µM [inhibitor, single point] |
| Cc1ccc(CN2CCN(CC3CC4C=CC3C4)CC2)cc1 (stereo not drawn) | inconclusive: 35.5 µM [inhibitor, single point] |
| Cc1ccc(NC(=O)CSc2nnc3n2CCCCC3)cc1 | inconclusive: 35.5 µM [activator, single point] |
| O=C(Nc1ccc(NC(=O)c2ccco2)cc1)c1ccc2c(c1)OCO2 | inconclusive: 35.5 µM [inhibitor, single point] |
| Cc1cc(S(=O)(=O)NC(C)C)ccc1OCC(=O)N1CCN(Cc2ccc3c(c2)OCO3)CC1 | inconclusive: 29.1 µM [inhibitor, single point] |
| CCOC(=O)c1cc(-c2ccc(C)cc2)n(CCC(=O)NC(C)CC)c1C (stereo not drawn) | inconclusive: 4.11 µM [inhibitor, full curve, poor fit] |
| CCn1c(SCc2ccc(F)cc2)nc2ccccc2c1=O | inconclusive: 1.26 µM [activator, single point] |
| Cc1cccc2nc(CSCc3ccco3)cn12 | inconclusive: 11.2 µM [inhibitor, single point] |
| Cc1c(C(=O)c2ccc(Cl)c(Cl)c2)cnc2cc3c(cc12)OCO3 | inconclusive: 20 µM [inhibitor, partial curve, poor fit] |
| Cc1ccc(-c2cc(C(=O)Nc3ccncc3)c3ccccc3n2)cc1 | inconclusive: 35.5 µM [inhibitor, single point] |
| CCOC(=O)N1CCC(=NNC(=O)c2ccccc2F)CC1 | inconclusive: 8.91 µM [activator, partial curve, poor fit] |

| Structure (SMILES) | Potency |
| --- | --- |
| Cc1ccc(NC(=O)CN2C(=O)S/C(=C/c3ccc(-c4cccc(C(=O)O)c4)o3)C2=O)cc1 | inconclusive: 1.41 µM [inhibitor, full curve, poor fit] |
| O=C(/C=C/Nc1cccc(O)c1)c1ccccc1 | inconclusive: 13 µM [inhibitor, partial curve, poor fit] |
| COc1cccc(CNC(=O)Cc2c(C(=O)O)[nH]c3ccccc23)c1 | inactive |
| Cc1ccc(NC2=CC(=O)CC(c3ccco3)C2)c(N)c1 (stereo not drawn) | inconclusive: 5.62 µM [inhibitor, full curve, poor fit] |
| CCOCCCNC(=O)c1ccc(Br)cc1 | inactive |
| COc1ccc(NS(=O)(=O)c2cc(NC(=O)c3ccco3)ccc2N2CCCCC2)cc1 | active: 14.1 µM |
| COc1ccccc1Oc1ccc(Oc2ccccc2OC)cc1 | active: 10 µM |
| CCc1ccc(NC(=S)N2CCCC2)cc1 | inactive |
| CN(C)/C=C/C(=O)c1ccc(Br)cc1 | inactive |
| Cc1cc(C(=O)OCC(=O)N2C(C)CCCC2C)c2ccccc2n1 (stereo not drawn) | inconclusive: 25.1 µM [inhibitor, single point] |
| Oc1c(CN2CCOCC2)cc(COCc2ccccc2)c2cccnc12 | inconclusive: 2.82 µM [inhibitor, full curve, poor fit] |
| CCOC(=O)c1ccc(COC(=O)CCc2nc3ccccc3[nH]c2=O)o1 | inactive and inconclusive: 18.3 µM [activator, single point] |
| CCn1c(COc2ccccc2C)nc2ccccc21 | inactive |
| O=C(Nc1ccc(F)cc1F)c1ccc2c(=O)n3c(nc2c1)CCC3 | inconclusive: 35.5 µM [inhibitor, single point] |
| CCCSc1cc(Cl)nc(N)n1 | inconclusive: 5.62 µM [inhibitor, single point] |
| Nc1ccc2oc(-c3cc(Br)ccc3Cl)nc2c1 | inconclusive: 25.9 µM [inhibitor, single point] |
| CSc1ccc(/C=N/n2c(C)nnc2C)cc1 | inactive |
| CC1=CC(C)(C)n2c(O)c(N=N)c3c(C)ccc1c32 | inconclusive: 22.4 µM [inhibitor, single point] |
| CCc1ccc(OCC(=O)NC(C)(C)C)cc1 | inactive |
| Nc1cccc2c1C(=O)N(CCOc1ccccc1F)C2=O | inconclusive: 6.31 µM [inhibitor, partial curve, poor fit] |
| CCOC(=O)C1CCCN(C(=O)c2cc3c(C)nc4ccccc4c3o2)C1 (stereo not drawn) | inconclusive: 11.6 µM [inhibitor, partial curve, poor fit] |
| CCCOC(=O)c1cc(-c2ccc(/C=C3/C(=O)N(C)C(=O)C(C#N)=C3C)o2)ccc1Cl | inconclusive: 5.17 µM [inhibitor, single point] |
| CN1CCN(CC(O)COc2ccc(C34CC5CC(CC(C5)C3)C4)cc2)CC1 (stereo not drawn) | inconclusive: 6.31 µM [inhibitor, partial curve, poor fit] |

| Structure (SMILES) | Potency |
| --- | --- |
| CCc1ccc(N(CC)C(=O)c2ccc3c(Cl)c4c(nc3c2)CCC4)cc1 | inconclusive: 2.91 µM [inhibitor, partial curve, poor fit] |
| CC(=O)c1ccc2c(c1)OCCOCCOc1ccccc1OCCOCCO2 | inconclusive: 10 µM [inhibitor, partial curve, poor fit] |
| COc1ccc(NS(=O)(=O)c2ccc(S(=O)(=O)N3CCCC3)cc2)cc1 | inconclusive: 35.5 µM [inhibitor, partial curve, poor fit] |
| CCOC(=O)C1CCN(S(=O)(=O)c2ccc(OC)c(C(=O)N3CCCCCC3)c2)CC1 | inactive |
| CC(=O)N1CCN(CC(=O)Nc2sccc2C#N)CC1 | inconclusive: 35.5 µM [activator, single point] |
| COCCn1nnnc1C(c1ccccc1OC)N1CCN(c2ccccc2)CC1 (stereo not drawn) | inconclusive: 5.62 µM [activator, single point] |
| COc1ccccc1C(=O)C(=O)c1ccccc1OC | inactive |
| C=CCn1c(O)c(C(CC)=Nc2ccccc2NC(C)=O)c(=O)[nH]c1=O | inconclusive: 6.51 µM [activator, partial curve, poor fit] |
| COc1ccc(-c2nc(CSCC(=O)NCc3ccccc3Cl)c(C)o2)cc1OC | inactive |
| Oc1ccccc1CN(Cc1ccco1)CC(O)COCc1ccc(Cl)cc1 (stereo not drawn) | inconclusive: 7.08 µM [inhibitor, single point] |
| COc1cc(NC(=O)CSc2nc3ccccc3cc2Cc2ccccc2)cc(OC)c1 | inconclusive: 10.3 µM [inhibitor, partial curve, poor fit] |
| CCC(C)N1C(=O)NC(=O)C2(Cc3c(ccc4ccccc34)N(C)C2)C1=O (stereo not drawn) | inconclusive: 23.1 µM [inhibitor, single point] |
| CCC1CCCCN1C(=O)COc1cccc2c1CCN(C)C2=O (stereo not drawn) | inactive |
| N#CC1=C(N)SC(N)=C(C#N)C1C1C=CCCC1 (stereo not drawn) | inactive |
| CC(C)c1ccc(Nc2c(-c3ccccn3)nc3ccccn23)cc1 | inconclusive: 35.5 µM [activator, single point] |
| CC(C)c1ccc(NC(=O)C2CC3CCC2C3)cc1 (stereo not drawn) | inconclusive: 2 µM [activator, partial curve, poor fit] |
| CC(=O)c1ccc(NS(=O)(=O)c2cccc(C)c2)cc1 | inconclusive: 20.6 µM [activator, single point] |
| CCN(CC)S(=O)(=O)c1ccc(-n2cnc3cc(C)c(C)cc32)nc1 | inconclusive: 7.94 µM [inhibitor, partial curve, poor fit] |
| C=CCNC(=S)/N=C/c1c(O)[nH]c(=O)[nH]c1=O | inactive |
| O=C(CN1CCCC1)Nc1ccc(-c2nc3cc(NC(=O)CN4CCCC4)ccc3o2)cc1 | inconclusive: 2.31 µM [inhibitor, full curve, poor fit] |
| CC(=O)c1cccc(NC(=S)NC2CCCCC2)c1 | inconclusive: 1.26 µM [inhibitor, single point] |
| CCOC(=O)C(CC)Sc1nc2c(c(=O)[nH]c(=O)n2C)n1C/C=C(/C)Cl (stereo not drawn) | inconclusive: 1.78 µM [inhibitor, partial curve, poor fit] |
